Here are results for one substance from patent US11896673B2, “Glucose responsive insulin delivery compositions and methods” (NORTH CAROLINA STATE UNIVERSITY, priority 2016, dated 2024).

This series deals with mRBCs. Put plainly: Binding/loading of Glu-Insulin to mouse RBCs (confocal, flow cytometry, ELISA). The note with it: for Glu-Insulin attached to mRBCs (loading efficiency): 1×10^8 RBCs, 0.5 mg/mL Glu-Insulin in 500 μL PBS overnight. The procedure:
Preparation of insulin loaded RBCs. Whole blood was collected from the B16 mice or from a human volunteer (The study protocol was approved by the Institutional Review Board at North Carolina State University). RBCs were separated from the whole blood by centrifugation (1000 g, 10 min) and washed thrice with cold PBS (300 mOsm, pH=8.0) to remove the glucose intracellularly. To load the insulin to RBC membrane, Glu-Insulin (0.5 mg/ml) was incubated with […] RBCs (1×10^8) under gentle stirring at 4° C. overnight. RBCs were washed thrice with cold PBS (300 mOsm, pH 8) to remove the unconjugated Glu-Insulin. Bound insulin was determined by ELISA assay.

On to “Glu-Insulin: human recombinant insulin conjugated to two glucose (glucosamine) molecules via a bifunctional maleimide (Sulfo-SMCC/thiol) linker”, for which the “Glu-Insulin attached to mRBCs (loading efficiency)” value is 20%. Moreover, the “Glu-Insulin attached to mRBCs (loading efficiency)” value (listed as glucose-insulin) is listed as “approximately 20%”. For the same substance, the “Glu-Insulin coupled per mRBC” value (ELISA) was “up to 5*10^−13 g per cell”.
